Library screen at single concentrations

Protein sequences, listed by entry. Tags and fused reporters are not part of them. Residues count along the entry.
UniProt Q8IDJ8, 1-583: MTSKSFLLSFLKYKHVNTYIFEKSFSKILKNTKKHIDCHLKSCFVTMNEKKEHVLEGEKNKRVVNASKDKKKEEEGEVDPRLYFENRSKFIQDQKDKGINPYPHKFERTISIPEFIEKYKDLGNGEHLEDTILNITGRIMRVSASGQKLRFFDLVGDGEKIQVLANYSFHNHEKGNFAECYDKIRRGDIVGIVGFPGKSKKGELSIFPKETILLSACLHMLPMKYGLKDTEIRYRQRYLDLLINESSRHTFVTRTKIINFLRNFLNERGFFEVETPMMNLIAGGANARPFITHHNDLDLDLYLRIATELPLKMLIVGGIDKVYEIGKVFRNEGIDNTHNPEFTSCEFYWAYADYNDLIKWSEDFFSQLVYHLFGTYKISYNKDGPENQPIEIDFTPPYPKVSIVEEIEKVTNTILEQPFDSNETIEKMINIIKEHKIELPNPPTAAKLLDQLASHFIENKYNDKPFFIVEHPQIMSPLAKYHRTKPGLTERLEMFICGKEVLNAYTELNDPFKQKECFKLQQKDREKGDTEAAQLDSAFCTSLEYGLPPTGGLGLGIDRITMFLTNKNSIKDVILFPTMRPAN

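Lysine-tRNA ligase, Plasmodium falciparum 3D7 (UniProt Q8IDJ8). Enzyme assay of the cytosolic lysyl-tRNA synthetase in 384-well plates, read by luminescence. Tested at 30 µM. Higher reads as stronger inhibition, judged from the few compounds that gave an IC50. About 69,000 compounds were tested under these conditions; 0.071% (about 49) showed 50% or more at least once.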

Values are the deposited “Percent Effect”, in %.
How 0% and 100% were set is not recorded. Most values in the screen are low, and negative values occur.
This is an unselected part of the compounds tested.

structure: CN(C)CCN(C)C(=O)Nc1cc(F)cc(N2CCCC2)c1
Percent Effect: 1.443%

structure: CC(=O)N(c1ccc(C)cc1)c1nc(CN2CCCC(C)C2)cs1 (stereo unspecified)
Percent Effect: 4.305%

structure: c1ccc(CCN2C[C@@H]3OCCN(c4ncccn4)[C@@H]3C2)cc1
Percent Effect: 1.904%

structure: Cc1csc(N2CCN(Cc3ccccn3)CC2C)n1 (stereo unspecified)
Percent Effect: 3.489%

structure: CCc1noc(CN2CCN(C(=O)C3CC3)CC2)n1
Percent Effect: 0.9997%

structure: CCn1nc(C)c(CNC(=O)NCC(C)(O)c2ccco2)c1C (stereo unspecified)
Percent Effect: 2.529%

structure: O=C(NCCc1nncn1C1CC1)c1cnn(Cc2ccccc2)c1
Percent Effect: 2.002%

structure: COc1cc(CC(O)CO)c(OC)c2c1OCO2 (stereo unspecified)
Percent Effect: -0.2216%

structure: Cc1nnsc1C(=O)N1CC[C@H](c2ccccc2)[C@@H]2[C@H]1CCCCN2C
Percent Effect: -0.4964%

structure: CCC(CO)N(Cc1ccco1)C(=O)c1ccc(F)cc1Cl (stereo unspecified)
Percent Effect: 2.371%

structure: CC(C)CN1CCC(c2nc3c([nH]2)CC(C)(C)CNC3=O)C1 (stereo unspecified)
Percent Effect: 3.4%

structure: CCc1nc(C)c(C(=O)NCCNc2ncnc3sccc23)s1
Percent Effect: 4.135%

structure: COc1ccc(Cl)cc1CCNC(=O)NCc1cnn(C)c1C
Percent Effect: 4.26%

structure: C[C@@H]1CN(CCC(=O)N(C)Cc2ccccc2)C[C@@]1(O)C1CCC1
Percent Effect: 2.991%

structure: CC(C)n1ccnc1C1CCN(Cc2ccc(C(F)(F)F)c(F)c2)CC1
Percent Effect: 2.968%

structure: Cc1nc(CN(Cc2ccccc2)C2CCS(=O)(=O)C2)oc1C (stereo unspecified)
Percent Effect: 2.849%

structure: O=S(=O)(c1ccccc1)N1CCC2(CCCN2Cc2ccc(Cl)cc2)C1 (stereo unspecified)
Percent Effect: 1.769%

structure: CCOCCCNc1nc(O)cc(C2CC(=O)N(C)C2)n1 (stereo unspecified)
Percent Effect: 4.271%

structure: COCCN1C[C@@H]2CN(Cc3ccsc3)CCC[C@]2(C(=O)O)C1
Percent Effect: 3.138%

structure: CN(CCC(O)c1ccccc1)c1cc(N2CCOCC2)ncn1 (stereo unspecified)
Percent Effect: 3.953%

structure: CCN1CCN(CC(O)c2cc(Cl)ccc2Cl)CC1 (stereo unspecified)
Percent Effect: 0.9987%

structure: Cc1nc2n(n1)CC(NCC(=O)N(C)Cc1cccs1)CC2 (stereo unspecified)
Percent Effect: -1.509%

structure: c1ccc(C(CC2CN(Cc3c[nH]cn3)CCO2)c2ccccc2)cc1 (stereo unspecified)
Percent Effect: 4.028%

structure: CN(C)C(=O)N1CC(=O)NCC12CCN(C(=O)c1ccco1)C2 (stereo unspecified)
Percent Effect: 3.396%

structure: Cc1ccc(CNCC2Cn3nnc(-c4cnn(C)c4)c3CO2)o1 (stereo unspecified)
Percent Effect: 1.401%

structure: COc1ccc(C2CCCN2C(=O)Nc2ccc(OC)nc2)cc1 (stereo unspecified)
Percent Effect: 25.02%

structure: CC(NC(=O)CCc1ccsc1)c1ccc2c(c1)NC(=O)CO2 (stereo unspecified)
Percent Effect: -1.584%

structure: CCN1CCC(NC(=O)Cn2cc(C)c3ccccc32)CC1
Percent Effect: -0.07996%

structure: CN(Cc1cnn(C)c1)C(=O)NC1CCC(O)CC1 (stereo unspecified)
Percent Effect: 2.263%

structure: Cc1cc(C)nc(NCc2nnc3n2CCCCC3)n1
Percent Effect: 4.609%

structure: COc1ccc(CCC(=O)NC2CCC(O)CC2)cc1OC (stereo unspecified)
Percent Effect: 1.317%

structure: COCCN1CC(C(=O)Nc2ccc3c(c2)CCC(=O)N3C)CC1=O (stereo unspecified)
Percent Effect: 4.26%

structure: Cc1ccc(N2C[C@H]3OCC[C@H]3[C@H](C(=O)NCc3ccco3)C2)nn1
Percent Effect: -2.624%

structure: O=C(NCc1cccnc1)[C@@H]1CC[C@@H]2[C@@H](CCN2c2ncc(F)cn2)O1
Percent Effect: 2.556%

structure: Cc1ccc(CCC(C)NC2CCN(C(N)=O)CC2)cc1 (stereo unspecified)
Percent Effect: 3.223%

structure: Cc1cc(C)nc(NC2CCOC3(CCCC3)C2)n1 (stereo unspecified)
Percent Effect: -1.183%

structure: CC(C)(NC(=O)c1cnc(-c2ccccc2F)s1)C(N)=O
Percent Effect: 7.031%

structure: O=C(c1ccco1)N1CCN(Cc2nc(C3CC3)no2)CC1
Percent Effect: -1.414%

structure: Cc1nc(CC(C)C)sc1C(=O)N1CCC(C2(C)OCCO2)CC1
Percent Effect: 1.871%

Measurements from “University of Dundee, Small-Polar-MMV Screening Library” (2021), ChEMBL document CHEMBL3988442.